This assay deals with RAGE in HEK293T cell lysates (pull-down assay) (UniProt Q15109). The experiment in a line: Ni-NTA pull-down of RAGE from HEK293T cell lysates with His-tau, quantified immunoblot.

Chains of the proteins cited; added tags and fusions are not shown. Lines headed by an entry give the natural chain unless they say otherwise; changes in a name come on top. A line that says so, or that is headed by a name, gives the form on record, which may keep a tag or linker. Residues count along the entry.
UniProt Q15109, residues 23-404: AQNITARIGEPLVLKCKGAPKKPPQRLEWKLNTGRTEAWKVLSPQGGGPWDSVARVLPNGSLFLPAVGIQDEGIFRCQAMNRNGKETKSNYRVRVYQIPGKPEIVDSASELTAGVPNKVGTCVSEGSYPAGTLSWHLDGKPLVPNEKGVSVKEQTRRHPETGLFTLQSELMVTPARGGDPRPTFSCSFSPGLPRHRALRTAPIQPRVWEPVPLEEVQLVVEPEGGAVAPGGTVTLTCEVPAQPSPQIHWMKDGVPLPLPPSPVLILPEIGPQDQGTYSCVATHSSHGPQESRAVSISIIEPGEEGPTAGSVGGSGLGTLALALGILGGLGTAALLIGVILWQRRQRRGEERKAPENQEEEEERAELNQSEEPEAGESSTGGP
tau fibrils of 6xHis tagged human 0N4R tau (P10636, form named): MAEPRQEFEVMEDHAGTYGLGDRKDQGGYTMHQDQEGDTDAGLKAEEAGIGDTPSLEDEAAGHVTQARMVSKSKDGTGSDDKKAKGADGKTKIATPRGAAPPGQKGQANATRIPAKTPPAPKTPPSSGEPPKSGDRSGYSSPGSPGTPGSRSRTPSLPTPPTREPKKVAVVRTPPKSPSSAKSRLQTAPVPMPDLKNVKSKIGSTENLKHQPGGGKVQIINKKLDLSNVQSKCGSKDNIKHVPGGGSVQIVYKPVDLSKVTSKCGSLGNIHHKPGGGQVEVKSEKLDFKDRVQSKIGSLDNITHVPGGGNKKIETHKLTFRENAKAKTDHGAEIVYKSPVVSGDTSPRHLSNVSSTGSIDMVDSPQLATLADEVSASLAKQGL

These are yes or no findings as the source states them, for the method shown. Binding seen in cells or lysates may run through a third protein. Some binding calls cover weakened binding; strength is not graded here.

Consider “tau fibrils of 6xHis tagged human 0N4R tau (from UniProt P10636 1-383) (ligand)”, for which the binding entry is “binds”.

The values above are taken from patent publication US20250389714A1, “PHARMACEUTICAL COMPOSITION FOR TREATING DISEASES RELATED TO TAUOPATHY” (SEOUL NATIONAL UNIVERSITY R&DB FOUNDATION, priority 2021, published 2025).
